Results on two substances are retold here after PMC9201722.

Protein sequences, listed by entry. Tags and fused reporters are not part of them. Lines headed by an entry give the natural chain unless they say otherwise; changes in a name come on top.
UniProt O97182: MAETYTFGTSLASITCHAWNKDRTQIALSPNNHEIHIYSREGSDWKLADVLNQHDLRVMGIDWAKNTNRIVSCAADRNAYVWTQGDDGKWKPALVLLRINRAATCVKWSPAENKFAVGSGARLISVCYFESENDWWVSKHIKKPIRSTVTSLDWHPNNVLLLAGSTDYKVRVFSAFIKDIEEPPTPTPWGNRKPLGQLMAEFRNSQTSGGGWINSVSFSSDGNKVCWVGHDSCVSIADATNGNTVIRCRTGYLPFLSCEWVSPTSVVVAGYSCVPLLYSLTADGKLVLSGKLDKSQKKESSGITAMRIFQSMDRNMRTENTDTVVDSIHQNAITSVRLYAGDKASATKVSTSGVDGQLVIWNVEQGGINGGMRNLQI
UniProt Q9VRJ6: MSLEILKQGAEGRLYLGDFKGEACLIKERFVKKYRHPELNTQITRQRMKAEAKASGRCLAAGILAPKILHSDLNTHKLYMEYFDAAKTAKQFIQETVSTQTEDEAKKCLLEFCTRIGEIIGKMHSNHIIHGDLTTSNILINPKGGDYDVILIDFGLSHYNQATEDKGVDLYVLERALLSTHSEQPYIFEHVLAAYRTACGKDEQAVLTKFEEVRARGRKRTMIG

These are yes or no findings as the source states them, for the method shown. In cells and extracts the contact can be indirect. Binding can be weak; no strength is given.

The target of this test is Arp2/3 complex subunit Arpc1, GFP-tagged (Arpc1-GFP) (Drosophila melanogaster) (UniProt O97182). The test can be described thus: co-IP; Constructs expressed with the Cg-Gal4 driver; extract of 60 pairs of third instar larval fat bodies (40 mM HEPES pH 7.5, 120 mM NaCl, 0.3% CHAPS buffer); 250 ug extract on GFP-Trap_A beads, 2 h at 4°C; blots with anti-HA and anti-GFP.

For the substance “Drosophila p53-related protein kinase, HA-tagged (Prpk-HA) (from UniProt Q9VRJ6)”, the binding result is given as “binds”. The result for “Drosophila p53-related protein kinase, FLAG-tagged (Prpk-Flag) (from UniProt Q9VRJ6)” reads “binds”.
